# At least one compound was matched to its structure with a doubt left.
# Assay: Particle size measurement by laser dynamic light scattering
# Type: physicochemical
# Conditions: agent formulated with multi-chain PEGylated micelle-forming surfactant
# Method: 1(f). Particle size measurement. […] Samples were further diluted ten times in distilled water and sizes were measured by laser dynamic light scattering using a particle sizer (Zetasizer Nano ZS instrument, available from Malvern Instruments Ltd of Worcestershire, United Kingdom). Size measurement of emulsion particles were conducted using a Coulter N4 particle sizer after a 100-fold dilution in saline.
smiles,measurement,value
C=CC1=C(C)c2cc3[nH]c(cc4nc(cc5[nH]c(cc1n2)c(C)c5CCC(=O)O)C(CCC(=O)O)=C4C)c(C)c3C=C [protoporphyrin IX],Size +/− SD,87.2 +/− 13 nm

# Source: patent publication US20190038556A1, “FORMULATIONS AND CARRIER SYSTEMS INCLUDING COMPOUND INTERACTIVE DOMAINS” (University of Pittsburgh - Of The Commonwealth System of …, priority 2012, published 2019)
